PubChem BioAssay AID504791 | Drosophila RNAi Screening Center, 2011

Assay: 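Genes whose knock-down strengthens or weakens small-RNA reporter silencing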 (primary screen)
System: Drosophila S2-derived reporter cells
Reagent: long dsRNA against Drosophila genes, about 150-250 ng dsRNA per well (siRNA assay); about 80-120 ng (miRNA assay)
Duration: about 5 days (siRNA assay); about 4 days (miRNA assay)
Conditions: copper sulfate induction of reporters: 25 µM (siRNA assay); 200 mM stated (miRNA assay), 1-2 days before reading
Measurement: 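Per-well ratio of Renilla over firefly light, expressed relative to that plate's average ratio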
Reading the numbers: siRNA reporter hit score: higher = 3 marks a strong hit with raised ratio; -3 a strong hit with lowered ratio
Call rule: 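First-pass picks had plate-scaled ratios over 1.5 for the siRNA assay, over 1.6 for the miRNA assay, or under 0.6; two distinct dsRNAs had to score alike on retest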
In all, the deposit lists about 23,000 reagents; this is an unselected part of those with a known target gene and a result. Over the whole deposit, 199 (0.86%) were called active. 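Plate-scaled ratios behind the calls are not deposited; printed light signals are raw; many rows marked increased or decreased are still called inactive.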 A number with no mark means an inactive call. A plus sign joins genes that one reagent is predicted to hit.

| target gene | DRSC id | siRNA reporter hit score | stable siRNA reporter change | miRNA reporter change | stable assay Renilla, run 1 (luminescence) | stable assay firefly, run 1 (luminescence) |
| --- | --- | --- | --- | --- | --- | --- |
| CG8915 | DRSC20119 | – | – | – | 7171 | 3.71e5 |
| mRpL11 | DRSC15482 | – | – | – | 5800 | 4.08e5 |
| CG31522 | DRSC12005 | – | – | – | 4912 | 4.03e5 |
| mRpL50 | DRSC11015 | – | – | – | 3252 | 4.27e5 |
| CadN | DRSC03286 | – | – | – | 7086 | 4.33e5 |
| 7B2 | DRSC11991 | – | reporter ratio raised past the hit cutoff | – | 9079 | 2.88e5 |
| Cerk | DRSC12285 | – | – | – | 7703 | 4.83e5 |
| CG11317 | DRSC14299 | – | – | – | 8478 | 4.63e5 |
| CG32450 | DRSC11546 | – | – | – | 5563 | 4.07e5 |
| RpS28a | DRSC15064 | – | – | – | 6835 | 3.97e5 |
| CG10492 | DRSC02064 | – | – | – | 1.59e5 | 9.67e5 |
| CG14752 | DRSC06488 | – | – | – | 6968 | 3.66e5 |
| Blos3 | DRSC09573 | – | – | – | 3543 | 3.97e5 |
| Agpat1 | DRSC19879 | – | – | – | 5840 | 4.11e5 |
| Agpat1 | DRSC19880 | – | – | – | 5915 | 4.29e5 |
| ND-B17 | DRSC01981 | – | – | – | 7002 | 4.24e5 |
| Prps | DRSC08994 | – | reporter ratio lowered past the hit cutoff | – | 2352 | 3.18e5 |
| Prps | DRSC10707 | – | – | – | 3544 | 2.34e5 |
| Prps | DRSC10708 | – | – | – | 3404 | 2.42e5 |
| CG34370 | DRSC03913 | – | – | – | 6826 | 5.09e5 |
| CG34370 | DRSC04142 | – | – | – | 7115 | 3.94e5 |
| CG34370 | DRSC04143 | – | – | – | 7166 | 4.42e5 |
| CG34370 | DRSC04144 | – | – | – | 7960 | 3.92e5 |
| CG3999 | DRSC15534 | – | – | – | 6347 | 3.31e5 |
| Cyp6t3 | DRSC07388 | – | – | – | 5983 | 3.57e5 |
| CG15701 | DRSC06572 | – | – | – | 7692 | 4.50e5 |
| Spn53F | DRSC06022 | – | – | – | 5894 | 3.13e5 |
| Cyp4d1 | DRSC17694 | – | – | – | 5779 | 2.71e5 |
| Cyp4d1 | DRSC18456 | – | – | – | 7227 | 3.74e5 |
| Ppt2 | DRSC02786 | – | – | – | 21553 | 1.18e6 |
| Ppt2 | DRSC26027 | – | – | reporter ratio raised past the hit cutoff | – | – |
| CG3604 | DRSC00618 | – | – | – | 7600 | 3.59e5 |
| CG4409 | DRSC06869 | – | – | – | 6939 | 3.01e5 |
| Sirt1 | DRSC03435 | – | – | – | 30980 | 4.35e5 |
| CG43672 | DRSC19452 | – | – | – | 5188 | 4.03e5 |
| CG43672 | DRSC20108 | – | – | – | 5567 | 3.43e5 |
| CG7101 | DRSC20023 | – | – | – | 6642 | 3.54e5 |
| CG7101 | DRSC22845 | – | – | – | 3808 | 4.11e5 |
| Fie | DRSC08158 | – | – | – | 8448 | 4.42e5 |
| DAT | DRSC07394 | – | – | – | 6563 | 3.12e5 |
| BNIP3 | DRSC11761 | – | – | – | 8615 | 5.08e5 |
| CG14636 | DRSC12223 | – | – | – | 7492 | 3.83e5 |
| Ggamma1 | DRSC07435 | – | – | – | 7886 | 3.41e5 |
| Caf1-180 | DRSC17807 | – | – | – | 7132 | 5.24e5 |
| l(1)sc | DRSC18789 | – | – | – | 6804 | 4.95e5 |
| Psf1 | DRSC08638 | – | – | – | 5726 | 5.28e5 |
| Cyp9c1 | DRSC04607 | – | – | – | 16222 | 9.59e5 |
| ARY (retired record) | DRSC20867 | – | – | – | 3487 | 3.85e5 |
| NimB1 | DRSC01880 | – | – | – | 18777 | 1.28e6 |
| CG3176 + CR18166 + CG32817 | DRSC17271 | – | – | – | 7176 | 3.36e5 |
| CG3176 + CR18166 + CG32817 | DRSC17282 | – | – | – | 6672 | 2.61e5 |
| CG3176 + CR18166 + CG32817 | DRSC18288 | – | – | – | 9707 | 5.37e5 |
| Cmtr1 | DRSC18400 | – | – | – | 6404 | 4.64e5 |
| woc | DRSC15928 | – | – | – | 7295 | 3.34e5 |
| CG12935 + Nop10 | DRSC07025 | – | – | – | 5390 | 3.81e5 |
| AsnS | DRSC11468 | – | – | – | 5807 | 4.03e5 |
| CG4892 | DRSC01937 | – | – | – | 7376 | 4.47e5 |
| CG7639 | DRSC07026 | – | – | – | 6056 | 2.96e5 |
| Syx6 | DRSC07032 | – | – | – | 8187 | 6.60e5 |
| zen2 | DRSC12633 | – | – | – | 7186 | 4.73e5 |
| EndoA | DRSC14775 | – | – | – | 10259 | 4.57e5 |
| CG30376 | DRSC05086 | – | – | – | 4619 | 3.75e5 |
| CG3588 | DRSC18473 | – | – | – | 5363 | 3.27e5 |
| CG9664 | DRSC00725 | – | – | – | 19457 | 4.17e5 |
| BOD1 | DRSC15824 | -3 | – | – | 8334 | 3.08e5 |
| BOD1 | DRSC24273 | – | – | reporter ratio raised past the hit cutoff (active) | – | – |
| CG2200 | DRSC19840 | 3 | – | – | 6386 | 5.24e5 |
| CG10920 | DRSC17765 | – | – | – | 5964 | 3.47e5 |
| Cyp6d5 | DRSC16634 | – | – | – | 9311 | 4.14e5 |
| AIF | DRSC00696 | – | – | – | 11778 | 5.03e5 |
| CG3092 | DRSC04336 | – | – | – | 47705 | 8.20e5 |
| CG42380 + CG42379 + PIG-M + 1 more | DRSC03884 | – | – | – | 5358 | 3.70e5 |
| CG42380 + CG42379 + PIG-M + 1 more | DRSC04580 | – | – | – | 10254 | 6.90e5 |
| upd2 | DRSC19969 | – | – | – | 3168 | 3.28e5 |
| l(2)37Cd | DRSC02069 | – | – | – | 14951 | 1.66e6 |
| lace | DRSC03564 | – | – | – | 26495 | 1.61e6 |
| EMRE | DRSC06686 | – | – | – | 5783 | 3.47e5 |
| CG3165 | DRSC00573 | – | – | – | 57942 | 81252 |
| Takl1 | DRSC13443 | – | – | – | 4475 | 4.21e5 |
| CG12693 | DRSC17882 | – | – | – | 5480 | 3.10e5 |
| Uba2 | DRSC11311 | – | reporter ratio lowered past the hit cutoff | – | 5358 | 6.96e5 |
| CG8568 | DRSC20113 | – | – | – | 8887 | 5.46e5 |
| CDK2AP1 | DRSC19800 | – | – | – | 6492 | 4.12e5 |

Already shown: 10 of the entries above.
| target gene | DRSC id | siRNA reporter hit score | stable siRNA reporter change | miRNA reporter change | stable assay Renilla, run 1 (luminescence) | stable assay firefly, run 1 (luminescence) |
| --- | --- | --- | --- | --- | --- | --- |
| Fie | DRSC08158 | – | – | – | 8448 | 4.42e5 |
| DAT | DRSC07394 | – | – | – | 6563 | 3.12e5 |
| BNIP3 | DRSC11761 | – | – | – | 8615 | 5.08e5 |
| CG14636 | DRSC12223 | – | – | – | 7492 | 3.83e5 |
| Ggamma1 | DRSC07435 | – | – | – | 7886 | 3.41e5 |
| Caf1-180 | DRSC17807 | – | – | – | 7132 | 5.24e5 |
| l(1)sc | DRSC18789 | – | – | – | 6804 | 4.95e5 |
| Psf1 | DRSC08638 | – | – | – | 5726 | 5.28e5 |
| Cyp9c1 | DRSC04607 | – | – | – | 16222 | 9.59e5 |
| ARY (retired record) | DRSC20867 | – | – | – | 3487 | 3.85e5 |
